# Measurements taken from the supplement of paper PMC10338343.
# ± gives the standard deviation. Some of the results follow. Many entries were measured with a wide error.
# Tested on: EfPiwi piRISC loaded with L1MC piRNA (26 nt)
# Assay: pre-steady-state target cleavage rate (min^-1); guide: L1MC piRNA 5'p-UAACUAAAUACUAUGCAAGCUGUAGG; MIWI and MILI are mouse PIWI proteins and EfPiwi is from a freshwater sponge; tags in brackets are library labels; higher = faster piRNA-guided slicing of the target
# Details: auxiliary factor: 500 nM Ephydatia muelleri Gtsf1
# Experimental: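 Cleave-'n-Seq: a library of target RNAs (target site in constant flanks) at […] was incubated with 1 nM active freshwater sponge Ephydatia fluviatilis Piwi piRISC (synthetic 5'-monophosphorylated piRNA guide) with or without 500 nM EmGtsf1 at 33 °C for 1 min to 16 h. Uncleaved targets were sequenced and the pooled three trials fitted to a burst-and-steady-state model to give the pre-steady-state cleavage rate (min^-1). Sequence is the target site only. Fits with R² ≤ 0 are excluded.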
row,Sequence,pre-steady-state target cleavage rate
1,UCCUGGAUGUCGAUGCAUAGUAUGUUAGUUA,0.00113 ± 0.0076
2,UCCUGGAUGAGCUUGCUUACUAUUUAGUUA,0.00203 ± 0.0022
3,UCCUGGUACAGCUUGCAAAGUAUUUUGUUA,0.00296 ± 0.0029
4,UCCUGGUACAGCUUGCAUAGAAAUUAGUUA,0.00112 ± 0.0035
5,UCCUGGAACAGCUUGCAUAGUAUAUAGUUA,0.00501 ± 0.0025
6,UCCUGGAUGUCCUUGCAUUAGUAUUUAGUUA,0.00162 ± 0.005
7,UCCUGGAUCAGCAUGCAUAGUAUUUACAAA,0.00615 ± 0.0038
8,UCCUGGAUGUGCUUGCAUAGUAUAUAGUUA,0.00285 ± 0.0034
9,UCCUGGAACAGCUUGCAUAGUAUUUAGCUA,0.00179 ± 0.0023
10,UCCUGGAUGUCGAUGCGUAGUAUUUAGUUA,0.000457 ± 0.011
11,UCCUGGAUGAGCUUGCAUAGUUUUUAGUUA,0.00485 ± 0.002
12,UCCUCCUACAGGAAGCAUAGUAUUUUCAAA,0.000244 ± 0.011
13,UCCUGGUACAGCUUGCAUAGUAAAUAGUAA,0.00211 ± 0.0032
14,UCCUGGAUGUCGUUGCAUAGUAUUUAGUGUA,0.000499 ± 0.011
15,UCCUGGAUGAGCUUGCAUAGUAAUUAGUUA,0.0154 ± 0.0044
16,UCCUGGUACAGCUUGCAUAGUAUUUUCAUA,0.00254 ± 0.0041
17,UCCUGGAUGUCCUUGCAUAGGAUUUAGUUA,0.000987 ± 0.0048
18,UCCUCCUAGUGCUUGCAUAGUAUUUACAAA,0.00293 ± 0.0029
19,UCCUGGAACAGCUUGCAUAGUAAAAUCAAA,0.00241 ± 0.0036
20,UCCUGGAUGAGCUUCCAUACUAUUUAGUUA,0.000388 ± 0.0065
21,UCCUGCUACAGGUUGCAUAGUUUUUAGUUA,0.00998 ± 0.0028
22,UCCUGGAUGAGCUAGCAUAGUAUUUAGAUA,0.00406 ± 0.002

# Same assay, conditions: auxiliary factor: none (no Gtsf1)
row,Sequence,pre-steady-state target cleavage rate
1,UCCUCCUACAGCUUGCAUAGUAUAAACAAA,0.000537 ± 0.014
2,UCCUGGAUGUCGAUGCAUAGUAUGUUAGUUA,0.000268 ± 0.037
3,UCCUGGAUGAGCUUGCUUACUAUUUAGUUA,0.00049 ± 0.015
4,UCCUGGUACAGCUUGCAAAGUAUUUUGUUA,0.000166 ± 0.031
5,UCCUGGAACAGCUUGCAUAGUAUAUAGUUA,0.00111 ± 0.0095
6,UCCUGGAUCAGCAUGCAUAGUAUUUACAAA,0.00056 ± 0.0098
7,UCCUGGAUGUGCUUGCAUAGUAUAUAGUUA,0.000896 ± 0.009
8,UCCUGGAACAGCUUGCAUAGUAUUUAGCUA,0.000408 ± 0.02
9,UCCUGGAUGUCGAUGCGUAGUAUUUAGUUA,0.00079 ± 0.0084
10,UCCUGGAUGAGCUUGCAUAGUUUUUAGUUA,0.00127 ± 0.0087
11,UCCUCCUACAGGAAGCAUAGUAUUUUCAAA,0.00013 ± 0.039
12,UCCUGGUACAGCUUGCAUAGUAAAUAGUAA,0.00145 ± 0.011
13,UCCUGGAUGUCGUUGCAUAGUAUUUAGUGUA,0.000619 ± 0.015
14,UCCUGGAUGAGCUUGCAUAGUAAUUAGUUA,0.00175 ± 0.0068
15,UCCUGGUACAGCUUGCAUAGUAUUUUCAUA,0.0012 ± 0.013
16,UCCUGGAUGUCCUUGCAUAGGAUUUAGUUA,0.000271 ± 0.023
17,UCCUGGAUGUCGAUGCAUAGUAUAAUCAAA [g8:g17:cont:t1A],0.000175 ± 0.031
18,UCCUGCUACAGGUUGCAUAGUUUUUAGUUA,0.0014 ± 0.0085
19,UCCUGGAUGAGCUAGCAUAGUAUUUAGAUA,0.00029 ± 0.029
